The name of at least one read-out is uncertain.
Experiment: Plasma propofol pharmacokinetics in Beagle dogs after intravenous, subcutaneous or rectal prodrug
Format: in vivo
Conditions: subcutaneous vs intravenous, on average
Protocol: Upon administration, the test prodrug is converted in the body into propofol, its pharmacologically active metabolite. The pharmacokinetic profile, i.e. the blood plasma concentration of propofol derived from the test prodrug, was assessed in a separate experiment. Three male Beagle dogs (8.7-10.9 kg) received intravenous, subcutaneous, or rectal doses of the prodrug (see Tab. 1, below). Blood samples were taken at pre-dose, 2 (only for intravenous and subcutaneous), 5, 15, 30 minutes, 1, 1.5, 2, 3, 4, 6, and 8 hrs after administration of the test prodrug. Blood samples were centrifuged to obtain plasma and stored frozen until analysis. The outcome of this experiment is depicted in the following Table I: […]

## CC(C)c1cccc(C(C)C)c1OCOP(=O)([O-])[O-].[Na+].[Na+] [O-phosphonooxymethyl propofol disodium salt]
  subcutaneous bioavailability (area under the curve) of propofol released from the prodrug relative to an intravenous dose: above 70%
